At least one structure is not confirmed: it was looked up by name or label, or the drawing left a doubt.
Assays:
[1] = tested on: glutamic acid oxidase (known enzyme); conditions: cited from earlier work
[2] = target: T1, novel L-glutamic acid oxidase (Streptomyces sp, UniProt Q8L3C7); experiment: Effects of various additives on the activity of the novel enzyme; type: biochemical, Streptomyces sp. X-119-6; set-up: from the cultured product of an actinomycete newly isolated from a soil sample; made in house; host or cells: cultured product of the natural (non-recombinant) actinomycete strain, purified; conditions: additive 1 mM, pH 7.4
T1 sequence (Q8L3C7 15-390 limits assumed): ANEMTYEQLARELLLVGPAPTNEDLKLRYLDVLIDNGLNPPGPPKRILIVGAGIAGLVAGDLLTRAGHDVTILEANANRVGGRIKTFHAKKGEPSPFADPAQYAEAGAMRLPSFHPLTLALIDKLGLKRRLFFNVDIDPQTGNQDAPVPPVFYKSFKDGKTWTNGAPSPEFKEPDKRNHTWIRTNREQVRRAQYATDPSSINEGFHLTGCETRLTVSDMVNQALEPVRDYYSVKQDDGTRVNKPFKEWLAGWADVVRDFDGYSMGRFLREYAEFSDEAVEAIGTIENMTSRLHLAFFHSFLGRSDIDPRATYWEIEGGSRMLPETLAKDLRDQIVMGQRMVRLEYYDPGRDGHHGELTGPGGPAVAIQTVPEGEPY
T1 sequence (Q8L3C7 391-520 limits assumed): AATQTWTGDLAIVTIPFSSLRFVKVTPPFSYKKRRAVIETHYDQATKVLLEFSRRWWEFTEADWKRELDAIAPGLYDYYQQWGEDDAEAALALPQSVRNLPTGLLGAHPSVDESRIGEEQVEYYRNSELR
T1 sequence (Q8L3C7 521-701 limits assumed): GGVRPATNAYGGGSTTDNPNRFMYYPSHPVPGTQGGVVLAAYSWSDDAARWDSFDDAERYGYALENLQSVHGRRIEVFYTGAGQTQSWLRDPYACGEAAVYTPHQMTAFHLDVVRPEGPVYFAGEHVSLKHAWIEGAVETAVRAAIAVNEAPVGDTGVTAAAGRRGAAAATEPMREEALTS

## CCN(CC)C(=S)S [DDTC, diethyldithiocarbamate]
[1]
  inhibition of the known enzyme (in words): Substantially completely inhibited
[2]
  inhibition of the activity of the novel enzyme (in words): not inhibited at all

Reference: US4614714A (priority 1982, dated 1986)
